# Source: PubChem BioAssay AID588832 (Broad Institute, 2011)
# The campaign covered roughly 8,000 compounds. Fewer than 10 were called active. Inconclusive results, whose numbers are uncertain, are shown with a selection of clear calls. How the calls were made is not given here.
# Test system: hedgehog, isoform A (Drosophila melanogaster)
# Assay: Hh protein inhibition, biochemical readout – plate reader, single concentration, primary screen (AID 588832);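 further: 0% = neutral control wells and 100% = positive control wells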
# Settings: Biochemical plate reader assay, at 30.3 µM, hits give high values
row,Structure (SMILES),inhibition
1,Cc1cc2ccccc2n1CCNC(=O)Cc1ccccc1,inconclusive: 30%
2,Cc1ccc(S(=O)(=O)Nc2ccc(O)c3ncccc23)cc1,active: 64.4%
3,CC(C)OC(=O)c1nnc(Cc2ccc(Cl)cc2)o1,inactive: 20%
4,Cc1cc2cc(CNS(=O)(=O)N(C)C)ccc2[nH]1,inconclusive: 43.2%
5,CCOC(=O)c1c(C)c(-c2ccccc2)n(CC(=O)N2CCCC2)c1C,inactive: 0.909%
